Results taken from the supplement of paper PMC7238544.
Structures can show the parent of a compound that is named as a salt. ± gives the standard deviation of the averaged measurements. The list shows a part of the results. The data scatter; read single values as rough.

Tests used:
hAMSC donor 1 [1] = test: Hoechst total cell count ratio vs vehicle control; higher = more cells (less toxicity)
hAMSC donor 2 [2] = test: as above
hAMSC donor 1 [3] = test: transgenic luciferase activity (RLU/mg protein) fold change vs vehicle control (ratio); higher = more transgene expression
hAMSC donor 2 [4] = test: as above
hAMSC donor 1 [5] = test: transfection efficiency (EGFP+ cells / Hoechst count) fold change vs vehicle control (ratio); hAMSC are human adipose-derived mesenchymal stem cells given an EGFP-luciferase plasmid by lipofection; higher = enhanced transfection
hAMSC donor 2 [6] = test: as above
[7] = priming compound concentration 0.2 µM
[8] = priming compound concentration 1.7 µM
[9] = priming compound concentration 13 µM

SMILES	Hoechst total cell count ratio (hAMSC donor 1 [1]; [7])	Hoechst total cell count ratio (hAMSC donor 1 [1]; [8])	Hoechst total cell count ratio (hAMSC donor 1 [1]; [9])	Hoechst total cell count ratio (hAMSC donor 2 [2]; [7])	Hoechst total cell count ratio (hAMSC donor 2 [2]; [8])	Hoechst total cell count ratio (hAMSC donor 2 [2]; [9])	transgenic luciferase activity (hAMSC donor 1 [3]; [8])	transgenic luciferase activity (hAMSC donor 2 [4]; [7])	transgenic luciferase activity (hAMSC donor 2 [4]; [8])	transfection efficiency (hAMSC donor 1 [5]; [7])	transfection efficiency (hAMSC donor 1 [5]; [8])	transfection efficiency (hAMSC donor 1 [5]; [9])	transfection efficiency (hAMSC donor 2 [6]; [7])	transfection efficiency (hAMSC donor 2 [6]; [8])	transfection efficiency (hAMSC donor 2 [6]; [9])	transgenic luciferase activity (hAMSC donor 1 [3]; [9])	transgenic luciferase activity (hAMSC donor 2 [4]; [9])
CC(N)C12CC3CC(CC(C3)C1)C2 (centres undefined) [Flumadine hydrochloride]	1.06 ± 0.054	1.01 ± 0.039	0.968 ± 0.065	1.21 ± 0.13	1.38 ± 0.29	1.43 ± 0.25	0.653 ± 0.2	0.864 ± 0.16	1.089 ± 0.0053	0.916 ± 0.18	0.533 ± 0.13	1.5 ± 0.58	1.13 ± 0.28	1.17 ± 0.2	1.05 ± 0.31		
Nc1ccc(S(=O)(=O)c2ccc(N)cc2)cc1 [Dapsone]	1.12 ± 0.2	1.56 ± 0.17	1.54 ± 0.036	1.25 ± 0.11	1.09 ± 0.12	1.12 ± 0.24		0.751 ± 0.093		1.14 ± 0.27	1.34 ± 0.26	0.98 ± 0.048	1.33 ± 0.25	1.04 ± 0.065	1.67 ± 0.3	2.96 ± 0.46	1.97 ± 0.6
CC1CNc2c(cccc2S(=O)(=O)N[C@@H](CCCNC(=N)N)C(=O)N2CC[C@@H](C)C[C@@H]2C(=O)O)C1 (some centres undefined) [Argatroban]	1.18 ± 0.078	1.23 ± 0.13	1.22 ± 0.24	1.12 ± 0.12	1.11 ± 0.041	1.08 ± 0.13	1.72 ± 0.6		0.316 ± 0.17	1.27 ± 0.21	1.08 ± 0.11	1.19 ± 0.2	0.972 ± 0.24	0.909 ± 0.054	1.23 ± 0.092		0.504 ± 0.061
COCc1c(C(C)C)nc(C(C)C)c(/C=C/[C@@H](O)C[C@@H](O)CC(=O)O)c1-c1ccc(F)cc1 [Cerivastatin sodium]	1.04 ± 0.14	0.778 ± 0.16	0.382 ± 0.091	1.32 ± 0.22	1.06 ± 0.044	0.632 ± 0.085	0.991 ± 0.32		0.753 ± 0.35	1.1 ± 0.2	2.72 ± 1.6		1.02 ± 0.22	1.4 ± 0.088	2.62 ± 0.17		0.814 ± 0.072
Cc1ncc([N+](=O)[O-])n1CCO [Metronidazole]	1.05 ± 0.11	1.02 ± 0.036	1.01 ± 0.11	1.3 ± 0.27	1.19 ± 0.13	1.08 ± 0.029	1.57 ± 0.79	1.25 ± 0.4	1.37 ± 0.096	1.25 ± 0.49	1.26 ± 0.36	1.3 ± 0.57	0.925 ± 0.077	1.15 ± 0.34	1.08 ± 0.46		
CN[C@@H]1[C@H](O)[C@H](NC)[C@H]2O[C@@]3(O)C(=O)C[C@@H](C)O[C@H]3O[C@@H]2[C@H]1O [Spectinomycin]	1.27 ± 0.069	1.23 ± 0.26	1.36 ± 0.083	1.35 ± 0.12	1.24 ± 0.13	1.23 ± 0.24	1.22 ± 0.45		0.393 ± 0.26	1.28 ± 0.17	1.31 ± 0.47	1.28 ± 0.28	0.874 ± 0.11	0.887 ± 0.057	0.989 ± 0.051		0.473 ± 0.088
CS(=O)(=O)OCCCCOS(C)(=O)=O [Busulfan]	1.18 ± 0.11	1.22 ± 0.048	1.24 ± 0.1	1.04 ± 0.26	0.929 ± 0.061	1.1 ± 0.061	0.343 ± 0.0044	1.49 ± 0.51	1.01 ± 0.46	1.11 ± 0.23	0.508 ± 0.033	1.28 ± 0.21	0.941 ± 0.16	1.24 ± 0.041	1.24 ± 0.11		
OCCOCCN1CCN(C2=Nc3ccccc3Sc3ccccc32)CC1 [Quetiapine fumarate]	1.32 ± 0.037	1.36 ± 0.14	1.43 ± 0.11	1.05 ± 0.24	1.51 ± 0.059	1.35 ± 0.18	1.04 ± 0.34		0.887 ± 0.18	1.08 ± 0.45	0.71 ± 0.15	0.903 ± 0.37	0.955 ± 0.14	0.883 ± 0.12	0.941 ± 0.12		0.814 ± 0.21
CCN1CCN(C(=O)N[C@@H](C(=O)N[C@@H]2C(=O)N3[C@@H]2SC(C)(C)[C@@H]3C(=O)O)c2ccccc2)C(=O)C1=O [Piperacillin sodium]	1.38 ± 0.2	1.5 ± 0.079	1.25 ± 0.07	1.09 ± 0.1	1.06 ± 0.065	1.17 ± 0.1		0.735 ± 0.11		1.17 ± 0.44	1.09 ± 0.086	1.28 ± 0.27	1.22 ± 0.098	0.808 ± 0.039	1 ± 0.022	0.988 ± 0.33	0.399 ± 0.049
CC(C[N+](C)(C)C)OC(N)=O (centres undefined) [Bethanechol chloride]	1.18 ± 0.16	1.48 ± 0.17	1.26 ± 0.23	1.08 ± 0.085	1.25 ± 0.013	1.36 ± 0.16		0.941 ± 0.15		1.14 ± 0.23	0.666 ± 0.19	1.08 ± 0.071	1.4 ± 0.21	0.949 ± 0.027	0.927 ± 0.15	1.76 ± 1.4	0.593 ± 0.064
CCN1CCN(c2cc3c(cc2F)c(=O)c(C(=O)O)cn3C2CC2)CC1 [Enrofloxacin]	1.19 ± 0.12	1.22 ± 0.21	1.05 ± 0.14	1.12 ± 0.094	1.02 ± 0.13	1.1 ± 0.051		0.669 ± 0.15		0.676 ± 0.065	1.05 ± 0.11	0.873 ± 0.14	1.07 ± 0.15	1.04 ± 0.24	1.02 ± 0.28	1.05 ± 0.24	0.72 ± 0.093
C=CC[C@@H]1/C=C(\C)C[C@H](C)C[C@H](OC)[C@H]2O[C@@](O)(C(=O)C(=O)N3CCCC[C@H]3C(=O)O[C@H](/C(C)=C/[C@@H]3CC[C@@H](O)[C@H](OC)C3)[C@H](C)[C@@H](O)CC1=O)[C@H](C)C[C@@H]2OC [Tacrolimus]	1.45 ± 0.13	1.5 ± 0.1	1.54 ± 0.15	1.11 ± 0.29	1.28 ± 0.076	1.22 ± 0.15	1.16 ± 0.39		0.93 ± 0.23	0.924 ± 0.19	1.01 ± 0.33	0.792 ± 0.23	0.993 ± 0.24	0.988 ± 0.041	0.994 ± 0.19		0.651 ± 0.05
CC[C@@H](CO)NCCN[C@@H](CC)CO [Ethambutol]	1.23 ± 0.044	1.17 ± 0.068	1.22 ± 0.12	1.16 ± 0.19	1.14 ± 0.15	1.1 ± 0.15	0.752 ± 0.033	0.846 ± 0.27	1.09 ± 0.3	0.969 ± 0.32	1.11 ± 0.12	1.22 ± 0.18	1.08 ± 0.2	0.994 ± 0.097	1.16 ± 0.29		

2 records picked at random from the list so far, as already listed:
SMILES	Hoechst total cell count ratio (hAMSC donor 1 [1]; [7])	Hoechst total cell count ratio (hAMSC donor 1 [1]; [8])	Hoechst total cell count ratio (hAMSC donor 1 [1]; [9])	Hoechst total cell count ratio (hAMSC donor 2 [2]; [7])	Hoechst total cell count ratio (hAMSC donor 2 [2]; [8])	Hoechst total cell count ratio (hAMSC donor 2 [2]; [9])	transgenic luciferase activity (hAMSC donor 1 [3]; [8])	transgenic luciferase activity (hAMSC donor 2 [4]; [7])	transgenic luciferase activity (hAMSC donor 2 [4]; [8])	transfection efficiency (hAMSC donor 1 [5]; [7])	transfection efficiency (hAMSC donor 1 [5]; [8])	transfection efficiency (hAMSC donor 1 [5]; [9])	transfection efficiency (hAMSC donor 2 [6]; [7])	transfection efficiency (hAMSC donor 2 [6]; [8])	transfection efficiency (hAMSC donor 2 [6]; [9])	transgenic luciferase activity (hAMSC donor 1 [3]; [9])	transgenic luciferase activity (hAMSC donor 2 [4]; [9])
OCCOCCN1CCN(C2=Nc3ccccc3Sc3ccccc32)CC1 [Quetiapine fumarate]	1.32 ± 0.037	1.36 ± 0.14	1.43 ± 0.11	1.05 ± 0.24	1.51 ± 0.059	1.35 ± 0.18	1.04 ± 0.34		0.887 ± 0.18	1.08 ± 0.45	0.71 ± 0.15	0.903 ± 0.37	0.955 ± 0.14	0.883 ± 0.12	0.941 ± 0.12		0.814 ± 0.21
CN[C@@H]1[C@H](O)[C@H](NC)[C@H]2O[C@@]3(O)C(=O)C[C@@H](C)O[C@H]3O[C@@H]2[C@H]1O [Spectinomycin]	1.27 ± 0.069	1.23 ± 0.26	1.36 ± 0.083	1.35 ± 0.12	1.24 ± 0.13	1.23 ± 0.24	1.22 ± 0.45		0.393 ± 0.26	1.28 ± 0.17	1.31 ± 0.47	1.28 ± 0.28	0.874 ± 0.11	0.887 ± 0.057	0.989 ± 0.051		0.473 ± 0.088
